For the assay, the target named is T1, GpsB (bacterial two-hybrid fusion) (Streptococcus pneumoniae R6) (UniProt Q8DR57).
T1 sequence: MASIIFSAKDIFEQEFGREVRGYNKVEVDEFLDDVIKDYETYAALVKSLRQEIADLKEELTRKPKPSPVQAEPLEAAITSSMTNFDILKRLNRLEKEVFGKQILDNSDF
Nature of the assay: two-hybrid.

Results are given in words; binding and its absence hold for the method and conditions named. Some binding calls cover weakened binding; strength is not graded here. Where a sequence is shown, tags or fusion partners need not be part of it.

B1: PgdA (bacterial two-hybrid fusion) (enzyme, UniProt Q8DP63 1-463)
chain: MNKSRLGRGRHGKTRHVLLALIGILAISICLLGGFIAFKIYQQKSFEQKIESLKKEKDDQLSEGNQKEHFRQGQAEVIAYYPLQGEKVISSVRELINQDVKDKLESKDNLVFYYTEQEESGLKGVVNRNVTKQIYDLVAFKIEETEKTSLGKVHLTEDGQPFTLDQLFSDASKAKEQLIKELTSFIEDKKIEQDQSEQIVKNFSDQDLSAWNFDYKDSQIILYPSPVVENLEEIALPVSAFFDVIQSSYLLEKDAALYQSYFDKKHQKVVALTFDDGPNPATTPQVLETLAKYDIKATFFVLGKNVSGNEDLVKRIKSEGHVVGNHSWSHPILSQLSLDEAKKQITDTEDVLTKVLGSSSKLMRPPYGAITDDIRNSLDLSFIMWDVDSLDWKSKNEASILTEIQHQVANGSIVLMHDIHSPTVNALPRVIEYLKNQGYTFVTIPEMLNTRLKAHELYYSRDE
In the case of B1, the binding entry is given as “binds”.

For the origin of these results see publication doi:10.1101/2024.11.09.622756.
